Record: PubChem BioAssay AID1053208 (Peter MacCallum Cancer Centre, 2014)

- Aim: 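Genes whose silencing cuts survival of bone tumour cells only with doxorubicin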 (primary screen)
- System: mouse osteosarcoma cells, early-passage culture from an engineered mouse model of fibroblastic bone tumour
- Reagent: siRNA pool against mouse genes, 40 nM
- Duration: about 120 h (48 h before drug, then 72 h with drug)
- Challenge: doxorubicin 100 nM for 72 h, roughly 30-40% inhibitory dose
- Measurement: 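Luminescent ATP signal taken as viability with or without 100 nM doxorubicin for 72 h; mean of two wells set against non-targeting siRNA and turned into robust z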
- Direction: viability z-score with doxorubicin and doxorubicin viability vs non-targeting: higher = more viable cells under doxorubicin; viability z-score without drug: higher = more viable cells with knock-down alone; z-score of drug to no-drug ratio: higher = less drug sensitisation by knock-down
- Rule for the call: 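a pool counts as active when its viability z-score with doxorubicin is -2 or below and its z-score without drug lies between -2 and 2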
Shown is a random part of about 17,000 reagents. Over the whole deposit, 788 (4.7%) are marked active. 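Calls rest on z-score classes alone; an extra cut-off of viability at most 70% of control was not applied to them.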 Entries without a mark were called inactive. No sequences are given here.

gene knocked down | combined z-score class | viability z-score with doxorubicin | viability z-score without drug | z-score of drug to no-drug ratio | doxorubicin viability vs non-targeting
St6galnac3 | no change with or without drug | 0 | -0.84 | 0.67 | 0.94
Armc7 (armadillo repeat containing 7) | no change with or without drug | -1.12 | 0 | -1.12 | 0.84
Hnmt (histamine N-methyltransferase) | no change with or without drug | 0.34 | -0.84 | 1.12 | 0.97
Atp10d (ATPase, class V, type 10D) | no change with or without drug | 0.79 | -1.18 | 1.91 | 1.01
Faf1 (Fas-associated factor 1) | no change with or without drug | -0.45 | -0.34 | -0.11 | 0.9
Sall3 (spalt like transcription factor 3) | no change with or without drug | -1.01 | -0.51 | -0.67 | 0.85
Slc5a7 | low cell count with doxorubicin only (active) | -2.02 | 0.67 | -2.36 | 0.76
Tmem223 (transmembrane protein 223) | high cell count with doxorubicin only | 2.59 | 0.84 | 2.14 | 1.17
Zfp532 (zinc finger protein 532) | no change with or without drug | 1.01 | -0.34 | 1.46 | 1.03
Ddx55 (DEAD box helicase 55) | no change with or without drug | 0.67 | -1.01 | 1.57 | 1
Dpt (dermatopontin) | no change with or without drug | 1.12 | 0.84 | 0.67 | 1.04

Entries listed so far whose gene name begins with S or s:
gene knocked down | combined z-score class | viability z-score with doxorubicin | viability z-score without drug | z-score of drug to no-drug ratio | doxorubicin viability vs non-targeting
St6galnac3 | no change with or without drug | 0 | -0.84 | 0.67 | 0.94
Sall3 (spalt like transcription factor 3) | no change with or without drug | -1.01 | -0.51 | -0.67 | 0.85
Slc5a7 | low cell count with doxorubicin only (active) | -2.02 | 0.67 | -2.36 | 0.76

The list goes on.
gene knocked down | combined z-score class | viability z-score with doxorubicin | viability z-score without drug | z-score of drug to no-drug ratio | doxorubicin viability vs non-targeting
Or6c65 (olfactory receptor family 6 subfamily C member 65) | no change with or without drug | 0 | -0.67 | 0.56 | 0.94
Ap2a1 (adaptor-related protein complex 2, alpha 1 subunit) | no change with or without drug | 1.01 | 1.18 | 0.34 | 1.03
4833408A19Rik (RIKEN cDNA 4833408A19 gene) | no change with or without drug | 1.46 | -1.01 | 2.47 | 1.07
E330013P04Rik (RIKEN cDNA E330013P04 gene) | no change with or without drug | 0 | 1.85 | -1.01 | 0.94
Tedc1 (tubulin epsilon and delta complex 1) | high cell count without drug only | 0.11 | 2.36 | -1.24 | 0.95
Pced1b (PC-esterase domain containing 1B) | low cell count with doxorubicin only (active) | -2.02 | -0.51 | -1.69 | 0.76
Rbp1 (retinol binding protein 1, cellular) | no change with or without drug | -1.35 | 0.51 | -1.57 | 0.82
Bckdha (branched chain ketoacid dehydrogenase E1, alpha polypeptide) | no change with or without drug | 1.46 | -0.51 | 2.02 | 1.07
Krtap31-1 (keratin associated protein 31-1) | no change with or without drug | 0.34 | 0 | 0.45 | 0.97
Sycp2 (synaptonemal complex protein 2) | no change with or without drug | -1.57 | 1.18 | -2.25 | 0.8
Ubxn10 (UBX domain protein 10) | no change with or without drug | 0.22 | -0.51 | 0.67 | 0.96
Reg3b (regenerating islet-derived 3 beta) | no change with or without drug | 0.9 | -0.17 | 1.24 | 1.02
Ear2 (eosinophil-associated, ribonuclease A family, member 2) | no change with or without drug | 0.22 | 1.35 | -0.56 | 0.96
Ffar4 (free fatty acid receptor 4) | no change with or without drug | 0.9 | 1.18 | 0.22 | 1.02
Ebf1 (early B cell factor 1) | no change with or without drug | -0.11 | 0 | 0 | 0.93
Nt5el (5' nucleotidase, ecto-like) | low cell count with doxorubicin only (active) | -2.36 | -0.17 | -2.25 | 0.73
BC002059 (cDNA sequence BC002059) | no change with or without drug | 0.67 | -0.34 | 1.12 | 1
Adcy3 (adenylate cyclase 3) | no change with or without drug | 0.9 | 0.34 | 0.79 | 1.02
Or52z1 (olfactory receptor family 52 subfamily Z member 1) | no change with or without drug | 0.22 | 0 | 0.34 | 0.96
Dcun1d5 (defective in cullin neddylation 1 domain containing 5) | no change with or without drug | 0.34 | 0.51 | 0.11 | 0.97
Ankrd24 (ankyrin repeat domain 24) | no change with or without drug | 0.79 | 0.84 | 0.34 | 1.01
Klra12 (killer cell lectin-like receptor subfamily A, member 12) | high cell count without drug only | 1.12 | 2.36 | -0.34 | 1.04
Tmem50a (transmembrane protein 50A) | no change with or without drug | 0 | -0.17 | 0.22 | 0.94
